Reference: paper PMC4705477, “Biochemical Characterization of Nonamer Binding Domain of RAG1 Reveals its Thymine Preference with Respect to Length and Position”

How the values were obtained:
[1] = biological target: T1, NBD (nonamer binding domain of RAG1) (mouse) (UniProt P15919); experiment: EMSA; conditions: 5 mM Ca2+, NBD EMSA: 10 mM Tris-HCl pH 7.5, 33 mM KCl, 5 mM CaCl2, 2 mM DTT, 0.1 mg/ml BSA, 6% glycerol, 15 min 30 C, recombinant protein, residues 384-461, protein details: N-terminal His6 (pET28a)
T1 sequence (looked up): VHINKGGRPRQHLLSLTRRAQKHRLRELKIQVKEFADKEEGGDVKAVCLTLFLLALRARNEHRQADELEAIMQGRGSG

[2] = system: MBP-cRAG1 (core RAG1) + cRAG2 (core RAG2); experiment: EMSA; conditions: cRAG buffer, NBD EMSA: 10 mM Tris-HCl pH 7.5, 33 mM KCl, 5 mM CaCl2, 2 mM DTT, 0.1 mg/ml BSA, 6% glycerol, 15 min 30 C, recombinant protein, protein details: MBP,MBP
[3] = biological target: T1, NBD (nonamer binding domain of RAG1) (mouse); experiment: BLI; conditions: 1x PBS, 30 C, 1:1 fit, BLI: 1x PBS, recombinant protein, residues 384-461, protein details: N-terminal His6 (pET28a)
[4] = label: 5' 32P, single-stranded DNA

Row | Sequence | binding result [1, 4] | also measured
1 | TTTTTTTTTTTTTTTTTTTTTTTTTTTTTTTTTTT (double strand) [ds A/T 35 bp (XIII, MS3/MS5)] |  | binding result ([1]; label: 5' 32P on MS3): binds; binding result ([2]; much less than 12RSS, label: 5' 32P on MS3): binds more weakly
2 | TAGCAGGGTTTTTGTTCCAGTCTGTAGCACTGTGGTAGCTATCAGCTGAT [XXVI, 50 nt ssDNA with 5 internal T (AKN2)] | no binding | 
3 | AAAAAAAAAAAAAAAAAAAAAAAAAAAAAAAAAAA [ss poly A 35 (IX, MS5)] | no binding | binding result [2, 4]: no binding
4 | GAGTCTGATCTTACCTCTTAACTTCGCTACCATTT [XXXVI, 3 T at 3' end (DR62)] | binds more weakly | 
5 | GACCTGAGGGCGAGCTTTTTTCGAGTAACTTAACAG [XXXIV, 6 T in centre (AKN11)] | binds more weakly | 
6 | GAGACTGATCTTACCTCTTAACTACTTTTTGACAC [XXXII, internal T stretch (MS25)] | binds more weakly | 
7 | GATCAGCTGATAGCTACCACAGTGCTACAGACTGGAACAAAAACCCTGCT / TAGCAGGGTTTTTGTTCCAGTCTGTAGCACTGTGGTAGCTATCAGCTGAT [biotinylated 12RSS (50 bp)] |  | Kd [3]: 4.02 µM
8 | GAGTCTGATCTTACCTCTTAACTTCGCTACCTTTT [XXXV, 4 T at 3' end (DR61)] | binds more weakly | 

For some of these results: Negatives hold for the conditions tested. For some of these results: At least one verdict was read from the data and is not stated in words by the source. For some of these results: Protein sequences can lack the tags named with them. For some of these results: A weaker result is weaker than the reference pair of the same experiment. The exact form of at least one protein or probe is not confirmed.
